# Primary screen of a compound library

Chains of the proteins cited; added tags and fusions are not shown. Residues count along the entry.
UniProt A4I591, 1-473: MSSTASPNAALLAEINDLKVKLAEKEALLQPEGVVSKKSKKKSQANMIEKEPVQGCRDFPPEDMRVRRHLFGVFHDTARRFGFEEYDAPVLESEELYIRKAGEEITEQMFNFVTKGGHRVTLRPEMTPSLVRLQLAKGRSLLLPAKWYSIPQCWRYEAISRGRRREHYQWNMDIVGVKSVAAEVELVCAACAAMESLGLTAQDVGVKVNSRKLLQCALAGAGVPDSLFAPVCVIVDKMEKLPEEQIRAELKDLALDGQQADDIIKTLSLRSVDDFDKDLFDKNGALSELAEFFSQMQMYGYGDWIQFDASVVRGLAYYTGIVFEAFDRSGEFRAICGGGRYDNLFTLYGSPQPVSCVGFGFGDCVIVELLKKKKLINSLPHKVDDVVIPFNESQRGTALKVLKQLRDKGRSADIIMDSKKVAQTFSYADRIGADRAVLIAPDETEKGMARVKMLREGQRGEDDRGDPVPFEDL
UniProt Q4DA54, 1-478: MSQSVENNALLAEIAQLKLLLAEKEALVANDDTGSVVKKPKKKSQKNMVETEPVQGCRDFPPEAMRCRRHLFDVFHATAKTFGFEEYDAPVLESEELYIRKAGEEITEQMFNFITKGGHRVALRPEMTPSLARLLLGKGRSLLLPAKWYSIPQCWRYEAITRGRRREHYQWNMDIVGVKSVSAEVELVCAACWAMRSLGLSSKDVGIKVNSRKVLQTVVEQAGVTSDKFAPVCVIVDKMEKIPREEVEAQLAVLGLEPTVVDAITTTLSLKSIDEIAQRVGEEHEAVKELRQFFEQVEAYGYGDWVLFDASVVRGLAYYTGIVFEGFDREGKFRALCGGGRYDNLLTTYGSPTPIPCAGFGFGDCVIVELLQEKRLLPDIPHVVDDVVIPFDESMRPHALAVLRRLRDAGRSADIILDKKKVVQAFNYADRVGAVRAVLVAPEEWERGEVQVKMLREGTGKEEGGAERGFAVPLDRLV
UniProt P9WPC5, whole entry: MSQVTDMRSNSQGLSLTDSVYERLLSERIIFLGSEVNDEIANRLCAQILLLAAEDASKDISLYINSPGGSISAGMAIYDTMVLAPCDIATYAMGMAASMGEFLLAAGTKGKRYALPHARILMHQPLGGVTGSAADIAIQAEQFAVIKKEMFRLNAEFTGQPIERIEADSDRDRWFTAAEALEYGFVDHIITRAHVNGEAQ
UniProt P9WPC3, whole entry partner: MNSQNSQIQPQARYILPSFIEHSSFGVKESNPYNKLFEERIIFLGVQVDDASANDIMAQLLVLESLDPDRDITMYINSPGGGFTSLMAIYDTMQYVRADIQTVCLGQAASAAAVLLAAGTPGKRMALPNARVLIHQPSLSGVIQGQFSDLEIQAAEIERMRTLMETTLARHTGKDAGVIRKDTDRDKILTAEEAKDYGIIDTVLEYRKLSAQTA

LiHisRS: 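Histidine-tRNA ligase, Leishmania infantum (UniProt A4I591). Enzyme assay of histidyl-tRNA synthetase; the read-out is not stated. Compounds at 30 µM. Direction is inferred from retests: higher values go with stronger inhibition. The assay is labelled LdHisRS but filed under L. infantum. Size under these conditions: about 69,000 compounds, about 410 of them at 50% or above in at least one test.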
TcHisRS: 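Enzyme assay of histidyl-tRNA synthetase; the read-out is not stated. Target: Histidine-tRNA ligase, Trypanosoma cruzi CL Brener (UniProt Q4DA54). Concentration: 30 µM. The record gives no direction; compounds that gave an IC50 in retests scored well above the rest, so higher reads as stronger inhibition. Size under these conditions: about 69,000 compounds, about 31 of them at 50% or above in at least one test.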
ClpP1P2: 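Protease assay of ClpP1P2, read by the AMC dye that it sets free. Target: ClpP1P2, Mycobacterium tuberculosis (UniProt P9WPC5 and UniProt P9WPC3). Tested at 50 µM. Higher reads as stronger inhibition, judged from the few compounds that gave an IC50. Most other retested compounds had strongly negative values. Of about 69,000 compounds tested this way, about 10 (0.015%) reached 50% or more in at least one test.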

Results are given as percent effect.
The record does not define 0% and 100%; most values in the screen are far below 50% and negative numbers occur (in some assays of this library far below -100).
The compounds are a random part of those screened.

SMILES	LiHisRS	TcHisRS	ClpP1P2
COCc1cc(O)nc(C2CCCN(Cc3cccc(OC)c3)C2)n1 (configuration not stated)	7.246	8.791	-6.565
CCOc1ccccc1NC(=O)N(CCO)Cc1ccsc1	5.31	0.8772	-17.01
CCOC(=O)NCCC(=O)NC(C)(C)c1ccc2c(c1)OCCO2	17.65	-0.4484	-17.19
CN(C)CCN1CCOCC2(CCCN(C(=O)c3cccc(O)c3)C2)C1 (configuration not stated)	28.57	5.882	2.76
COc1ccc(-c2noc(C(N)CCSC)n2)cc1 (configuration not stated)	18.68	0	-0.3442
C/C(NC(=O)c1ccco1)=C1/C(=O)C[C@@H]2[C@H]1C2(C)C	3.297	2.97	27.95
CNc1cc(CNC(=O)c2cccnc2)nc(-c2ccncc2)n1	13.04	15.38	-5.006
CCOC(=O)NC1CCCN(Cc2ccc(-n3cncn3)c(C)c2)C1 (configuration not stated)	3.448	4.712	0.4363
O=C(c1cccnc1)N1CCCC(c2ccnc3nccn23)C1 (configuration not stated)	5.755	-0.3831	-14.83
Cc1cccc(CN2CC[C@@H]3[C@@H]2CCN3C(=O)c2ccoc2C)n1	5.128	4.878	9.396
CC1CC(=O)c2cc(C(=O)N3CCOCC3)c(=O)[nH]c2C1 (configuration not stated)	20	0	-0.3237
COc1ccc(NCCC(=O)NCc2cccnc2N(C)C)cc1	17.33	7.937	-2.597
CC(C)C(C)NC(=O)Nc1ccc(F)c(C(N)=O)c1 (configuration not stated)	11.97	5.413	-10.13
CC(Cn1ccnc1)NCc1ccc2nonc2c1 (configuration not stated)	15.05	4.712	5.162
CCOc1ccc(Cl)c(C(=O)NCCS(N)(=O)=O)n1	15.74	6.158	0.03962
COc1ccccc1CN1CCCCC1c1n[nH]cc1-c1cc(C)no1 (configuration not stated)	7.143	5.747	-15.91
CCc1ccsc1C(=O)N1CCCN(Cc2cnn(CC)c2)CC1	20.34	6.857	-13.22
CCc1noc(C)c1C(=O)NCc1cc[nH]n1	24.73	12.5	-2.75
O=C(c1cncc(NCC2COc3ccccc3C2)n1)N1CCCC1 (configuration not stated)	18.33	0	-72.14
CN(C)c1ccc(C(=O)N2CCN(c3cnccn3)CC2)cn1	12.04	4.399	-12.29
N#Cc1cc(C(F)(F)F)ccc1NCC1CCS(=O)(=O)CC1	16.13	11.31	-3.296
CCc1nnc(CN(C)Cc2cccc(C(=O)Nc3nccs3)c2)o1	19.18	6.557	-4.041
Cn1cc(C(=O)NCCC(=O)N2CCCCC2)c(-c2cccnc2)n1	11.69	6.404	-2.827
Cc1ccn(CCNc2ncnc3c2CCN(Cc2ncc[nH]2)CC3)n1	19.67	-2.02	-2.87
Cc1cnn(CC2CN(Cc3csc(C4CCCC4)n3)CCO2)c1 (configuration not stated)	20.54	12.72	-52.62
c1cc(CN2CCCC2)cc(-n2ccnc2-c2ccncc2)c1	20.43	7.853	-0.7965
FC(F)(F)c1ccccc1CCC1CCCN(Cc2cscn2)C1 (configuration not stated)	-1.653	4.202	8.316
Cc1ccc2oc(CN3CCC(C(=O)O)(n4ccnc4)CC3)c(C)c2c1	4.819	2.762	-15.94
COCC1CCN(S(=O)(=O)c2ccc(C(=O)NCC(F)F)cc2)C1 (configuration not stated)	15.04	5.6	4.177
CC(C)(C)NS(=O)(=O)c1ccc(NC(=O)C2CC2)cc1	10.53	-3.911	-9.15
CN1CC(=O)c2sc(NCCc3ccccc3)nc2C1	5.714	0	-7.17
c1cncc(OCC2CC3(CCN(CC4CC4)CC3)CO2)c1 (configuration not stated)	7.895	5.747	6.889
COc1ccc(NC(=O)c2nc(C)sc2C)cn1	25.27	8.247	14.53
CC(C)(CNc1ccc(S(=O)(=O)C(F)F)cc1)N1CCOCC1	24.66	1.587	9.536
Cn1c(=O)oc2ccc(NC(=O)N3CCc4ccccc4C3)cc21	31.43	9.091	2.114
CCN(CC)CC[C@H]1CN(C(=O)CC(C)(C)C)CC[C@H]1CC(=O)O	19.44	12.87	-2.756
CCNC(=O)c1ccoc1CN1c2ccccc2CC1C (configuration not stated)	7.619	4.132	-9.147
CCc1nc(CC2CN(c3ncnc4nc(C)cc(C)c34)CCO2)no1 (configuration not stated)	7.792	3.636	-1.232
CC(=O)N1CCN(C(=O)Nc2ccccc2Cl)[C@H]2CS(=O)(=O)C[C@H]21	6.557	2.146	-0.5082
Cc1cnc(N2CCC3(CC2)CC(NS(C)(=O)=O)CO3)nc1 (configuration not stated)	5.263	9.195	0.4709
c1cnc(N2CCO[C@H]3[C@H](OCC4CCOCC4)CC[C@@H]32)nc1	11.71	3.315	2.124
C=C(C)CN1CCC(NC(=O)c2scnc2C)CC1	13.16	5.78	0.7327
CO[C@@H]1CCN(c2nnc(C)s2)C[C@@H]1Cc1cccc(C)c1	19.44	9.453	-14.18
Cc1cnc(N2CCC(c3ccccc3)CC2)nc1-c1ccnn1C	6.667	13.64	-5.427
Cc1nc(C)n(CC2CCCN2CC(=O)Nc2cc(C(C)C)no2)n1 (configuration not stated)	19.7	-0.7576	-1.952
CCC(NC(=O)Nc1ccc(OC)c(C)c1)c1noc(C)n1 (configuration not stated)	0	3.896	1.866
CCN1CCCCC1C(=O)N1CCC(OCCOC)CC1 (configuration not stated)	15.22	0	-3.136
CCN(C)C1CCCc2nc(C)sc21 (configuration not stated)	8.219	6.349	-6.54
CCN(C(=O)COC)C(c1cccnc1)c1ccc2c(c1)CCO2 (configuration not stated)	3.81	4.132	4.343
O=C(NC1(c2cccc(F)c2)CCOCC1)c1cc[nH]n1	16.04	-20.08	-4.242
CC1c2ncc(COc3cccnc3)n2CCN1Cc1cnn(C)c1 (configuration not stated)	7.921	3.518	-5.705
CC(=O)Nc1nc(C2CCN(CC(N)=O)CC2)cs1	-2.778	5.946	-6.705
O=C(CCN1CCc2[nH]nc(C(F)(F)F)c2C1)Nc1ccccc1	10.53	10.92	3.238

Some entries from above, unchanged:

SMILES,LiHisRS,TcHisRS,ClpP1P2
CCc1nnc(CN(C)Cc2cccc(C(=O)Nc3nccs3)c2)o1,19.18,6.557,-4.041
Cc1cccc(CN2CC[C@@H]3[C@@H]2CCN3C(=O)c2ccoc2C)n1,5.128,4.878,9.396
COCc1cc(O)nc(C2CCCN(Cc3cccc(OC)c3)C2)n1 (configuration not stated),7.246,8.791,-6.565

Measurements from “University of Dundee, Small-Polar-MMV Screening Library” (2021), ChEMBL document CHEMBL3988442.